Experimental data from US20260234281A1.
These are yes or no findings as the source states them, for the method shown. Some entries that bind do so weakly or less than the wild type.

Chains of the proteins cited; added tags and fusions are not shown. Residues count along the entry.
UniProt P02786, residues 121-760: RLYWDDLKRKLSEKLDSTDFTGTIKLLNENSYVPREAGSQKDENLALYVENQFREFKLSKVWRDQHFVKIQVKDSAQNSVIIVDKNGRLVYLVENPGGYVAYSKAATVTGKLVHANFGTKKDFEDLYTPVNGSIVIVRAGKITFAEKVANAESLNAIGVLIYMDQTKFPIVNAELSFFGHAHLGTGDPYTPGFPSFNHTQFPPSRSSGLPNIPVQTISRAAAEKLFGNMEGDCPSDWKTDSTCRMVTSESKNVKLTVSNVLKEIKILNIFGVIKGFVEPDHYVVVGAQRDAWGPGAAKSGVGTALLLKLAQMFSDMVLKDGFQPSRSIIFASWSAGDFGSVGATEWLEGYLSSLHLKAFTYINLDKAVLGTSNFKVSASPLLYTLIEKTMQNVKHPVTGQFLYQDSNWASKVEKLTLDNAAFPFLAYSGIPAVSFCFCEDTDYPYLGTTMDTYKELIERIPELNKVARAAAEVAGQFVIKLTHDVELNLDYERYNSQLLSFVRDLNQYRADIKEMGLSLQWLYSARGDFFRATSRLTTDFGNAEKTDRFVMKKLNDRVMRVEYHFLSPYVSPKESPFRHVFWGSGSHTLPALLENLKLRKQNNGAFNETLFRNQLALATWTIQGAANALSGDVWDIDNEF

Each binder was assayed against Human transferrin receptor (TfR) protein, coated on ELISA plate (human) (UniProt P02786) (assay: ELISA, human TfR coated at 2.5 ug/mL, HRP anti-human IgG detection).

binding	Binder
binds	Chimeric anti-human transferrin receptor antibody 128.1 (wild-type) (antibody, V domains shown) VH: EVQLQQSGPELVKPGASMKISCKASGYSFTGYTMNWVKQSHGENLEWIGRINPHNGGTDYNQKFKDKAPLTVDKSSNTAYMELLSLTSEDSAVYYCARGYYYYSLDYWGQGTSVTVSS VL: QIVLTQSPAIMSASPGEKVTMTCSASSSIDYIHWYQQKSGTSPKRWIYDTSKLASGVPARFSGSGSGTSYSLTISSMEPEDAATYYCHQRNSYPWTFGGGTRLEIR
binds	Humanized anti-human transferrin receptor antibody 128.1 (antibody, V domains shown) VH: EVKLQQSGPELVKPGASVKMSCKASGYSFTGYTMNWVKQKPGQGLEWIGRINPHNGGTDYNQKFKDKATLTSDKSSSTAYMELSSLTSEDSAVYYCARGYYYYSLDYWGQGTTLTVSS VL: QIVLTQSPAIMSASPGEKVTMTCSASSSIDYIHWYQQKPGTSPKRWIYDTSKLASGVPARFSGSGSGTSYSLTISSMEAEDAATYYCHQRNSYPWTFGGGTKLEIK

These binders were tested against Human transferrin receptor (TfR) protein, coated on ELISA plate (human) (UniProt P02786) (assay: affinity measurement against TfR protein with purified antibody (FIG. 12)).

Binder	binding
Humanized 128.1 antibody L11+H17 (antibody, V domains shown) VH: QVQLVQSGAEVKKPGASVKVSCKASGYSFTGYTISWVRQAPGQGLEWMGWINPHNGGTNYAQKLQGRVTMTTDTSTSTAYMELRSLRSDDTAVYYCARGYYYYSLDYWGQGTSVTVSS VL: DIQMTQSPSAMSASVGDRVTITCRASSSIDYLAWFQQKPGKVPKRLIYDTSSLQSGVPSRFSGSGSGTEFTLTISSLQPEDFATYYCHQRNSYPWTFGQGTRLEIK	binds
Humanized 128.1 antibody L7+H13 (antibody, V domains shown) VH: QVQLVQSGAEVKKPGASVKVSCKASGYSFTGYTINWVRQATGQGLEWMGWINPHNGGTGYAQKFQGRVTMTRNTSISTAYMELSSLRSEDTAVYYCARGYYYYSLDYWGQGTSVTVSS VL: DIQMTQSPSSLSASVGDRVTITCRASSSIDYLAWFQQKPGKAPKSLIYDTSSLQSGVPSRFSGSGSGTDFTLTISSLQPEDFATYYCHQRNSYPWTFGQGTRLEIK	binds
Humanized 128.1 antibody L12+H20 (antibody, V domains shown) VH: QVQLVQSGAEVKKPGASVKVSCKASGYSFTGYTMHWVRQAPGQGLEWMGIINPHNGGTSYAQKFQGRVTMTRDTSTSTVYMELSSLRSEDTAVYYCARGYYYYSLDYWGQGTSVTVSS VL: AIQLTQSPSSLSASVGDRVTITCRASSSIDYLAWYQQKPGKAPKLLIYDTSSLESGVPSRFSGSGSGTDFTLTISSLQPEDFATYYCHQRNSYPWTFGQGTRLEIK	binds
Humanized 128.1 antibody L21+H13 (antibody, V domains shown) VH: QVQLVQSGAEVKKPGASVKVSCKASGYSFTGYTINWVRQATGQGLEWMGWINPHNGGTGYAQKFQGRVTMTRNTSISTAYMELSSLRSEDTAVYYCARGYYYYSLDYWGQGTSVTVSS VL: DIQMTQSPSTLSASVGDRVTITCSASSSIDYMHWYQQKPGKAPKLLIYDTSKLASGVPARFSGSGSGTEFTLTISSLQPDDFATYYCHQRNSYPWTFGQGTKVEVK	binds
Humanized 128.1 antibody L15+H20 (antibody, V domains shown) VH: QVQLVQSGAEVKKPGASVKVSCKASGYSFTGYTMHWVRQAPGQGLEWMGIINPHNGGTSYAQKFQGRVTMTRDTSTSTVYMELSSLRSEDTAVYYCARGYYYYSLDYWGQGTSVTVSS VL: EIVLTQSPATLSLSPGERATLSCRASSSIDYLAWYQQKPGQAPRLLIYDTSNRATGIPARFSGSGPGTDFTLTISSLEPEDFAVYYCHQRNSYPWTFGQGTRLEIK	binds
Humanized 128.1 antibody L2+H19 (antibody, V domains shown) VH: QVQLVQSGAEVKKPGASVKVSCKASGYSFTGYTISWVRQAPGQGLEWMGWINPHNGGTNYAQKLQGRVTMTTDTSTSTAYMELRSLRSDDMAVYYCARGYYYYSLDYWGQGTSVTVSS VL: DIQMTQSPSTLSASVGDRVTIICRASSSIDYLAWYQQKPGKAPKLLIYDTSSLESGVPSRFSGSGSGTEFTLTISSLQPDDFATYYCHQRNSYPWTFGQGTRLEIK	binds
Humanized 128.1 antibody L10+H16 (antibody, V domains shown) VH: QVQLVQSGAEVKKPGASVKVSCKASGYSFTGYTISWVRQAPGQGLEWMGWINPHNGGTNYAQKLQGRVTMTTDTSTSTAYMELRSLRSDDMAVYYCARGYYYYSLDYWGQGTSVTVSS VL: DIQMTQSPSSLSASVGDRVTITCRASSSIDYLGWYQQKPGKAPKRLIYDTSSLQSGVPSRFSGSGSGTEFTLTISNLQPEDFATYYCHQRNSYPWTFGQGTRLEIK	binds

The next lines start with the values.

binding	Binder
binds	Humanized 128.1 antibody L20+H13 (antibody, V domains shown) VH: QVQLVQSGAEVKKPGASVKVSCKASGYSFTGYTINWVRQATGQGLEWMGWINPHNGGTGYAQKFQGRVTMTRNTSISTAYMELSSLRSEDTAVYYCARGYYYYSLDYWGQGTSVTVSS VL: EIVLTQSPATLSLSPGERATLSCRASSSIDYLAWYQQKPGQAPRLLIYDTSSRATGIPDRFSGSGSGTDFTLTISRLEPEDFAVYYCHQRNSYPWTFGQGTRLEIK
binds	Humanized 128.1 antibody L9+H15 (antibody, V domains shown) VH: QVQLVQSGAEVKKPGASVKVSCKASGYSFTGYTISWVRQAPGQGLEWMGWINPHNGGTNYAQKLQGRVTMTTDTSTSTAYMELRSLRSDDTAVYYCARGYYYYSLDYWGQGTTVTVSS VL: DIQMTQSPSSLSASVGDRVTITCRASSSIDYLGWYQQKPGKAPKRLIYDTSSLQSGVPSRFSGSGSGTEFTLTISSLQPEDFATYYCHQRNSYPWTFGQGTRLEIK
